Measurements reported in patent publication WO2020216210A1 (dated 2020).
Results are given in words; binding and its absence hold for the method and conditions named. Some binding calls cover weakened binding; strength is not graded here.

Biological target: T1, human EpCAM full-length protein (on MCF-7 and A431 cells) (human) (UniProt P16422)
T1 sequence: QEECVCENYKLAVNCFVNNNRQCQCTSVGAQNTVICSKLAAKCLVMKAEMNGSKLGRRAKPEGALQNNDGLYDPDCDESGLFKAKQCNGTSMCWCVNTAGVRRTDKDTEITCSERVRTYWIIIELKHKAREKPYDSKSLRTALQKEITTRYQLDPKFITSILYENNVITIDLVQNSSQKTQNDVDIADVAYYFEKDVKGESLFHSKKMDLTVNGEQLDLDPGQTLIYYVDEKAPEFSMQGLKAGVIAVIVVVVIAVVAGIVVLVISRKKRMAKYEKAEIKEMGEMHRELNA
Assay: flow cytometry (FACS) on MCF-7 and A431 cells, Alexa Fluor 488 goat anti-human IgG detection

B1: fully human antibody h1906 (antibody, human IgG1, kappa, V domains shown)
VH: QMQLVQSGAEVKKPGASVKVSCKASGYTFTSYDINWVRQATGQGLEWMGWMNPNSGNTGYAQKFQGRVTMTRNTSISTAYMELSSLRSEDTAVYYCARGVVVVVAATRGHYYYYYGMDVWGQGTTVTVSS
VL: DIQMTQSPSSLSASIGDRVSMTCRASQSVTKYLNWYQQTPGKPPKLLIFSASHLQTGVPSRFSGSGSGTDFTLTIDSLQPEDVATYYCQQSYSTPFTFGQGTNVEIKR
binding: binds
